The values that follow come from PMC4366354.

The chains behind the UniProt entries cited, without tags or fusion partners.
UniProt O60260: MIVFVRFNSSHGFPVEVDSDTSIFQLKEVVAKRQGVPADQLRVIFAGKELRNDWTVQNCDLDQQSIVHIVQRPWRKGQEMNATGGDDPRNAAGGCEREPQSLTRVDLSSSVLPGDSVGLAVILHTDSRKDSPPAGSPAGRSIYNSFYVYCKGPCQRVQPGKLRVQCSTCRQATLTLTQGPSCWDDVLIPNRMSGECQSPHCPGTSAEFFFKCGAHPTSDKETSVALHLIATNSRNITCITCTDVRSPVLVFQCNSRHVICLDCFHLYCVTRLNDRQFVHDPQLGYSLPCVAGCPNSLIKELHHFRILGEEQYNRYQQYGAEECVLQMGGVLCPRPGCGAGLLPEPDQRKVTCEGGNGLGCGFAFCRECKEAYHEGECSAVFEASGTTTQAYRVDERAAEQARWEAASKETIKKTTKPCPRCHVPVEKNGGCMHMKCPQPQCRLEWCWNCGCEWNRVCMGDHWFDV
UniProt Q99700: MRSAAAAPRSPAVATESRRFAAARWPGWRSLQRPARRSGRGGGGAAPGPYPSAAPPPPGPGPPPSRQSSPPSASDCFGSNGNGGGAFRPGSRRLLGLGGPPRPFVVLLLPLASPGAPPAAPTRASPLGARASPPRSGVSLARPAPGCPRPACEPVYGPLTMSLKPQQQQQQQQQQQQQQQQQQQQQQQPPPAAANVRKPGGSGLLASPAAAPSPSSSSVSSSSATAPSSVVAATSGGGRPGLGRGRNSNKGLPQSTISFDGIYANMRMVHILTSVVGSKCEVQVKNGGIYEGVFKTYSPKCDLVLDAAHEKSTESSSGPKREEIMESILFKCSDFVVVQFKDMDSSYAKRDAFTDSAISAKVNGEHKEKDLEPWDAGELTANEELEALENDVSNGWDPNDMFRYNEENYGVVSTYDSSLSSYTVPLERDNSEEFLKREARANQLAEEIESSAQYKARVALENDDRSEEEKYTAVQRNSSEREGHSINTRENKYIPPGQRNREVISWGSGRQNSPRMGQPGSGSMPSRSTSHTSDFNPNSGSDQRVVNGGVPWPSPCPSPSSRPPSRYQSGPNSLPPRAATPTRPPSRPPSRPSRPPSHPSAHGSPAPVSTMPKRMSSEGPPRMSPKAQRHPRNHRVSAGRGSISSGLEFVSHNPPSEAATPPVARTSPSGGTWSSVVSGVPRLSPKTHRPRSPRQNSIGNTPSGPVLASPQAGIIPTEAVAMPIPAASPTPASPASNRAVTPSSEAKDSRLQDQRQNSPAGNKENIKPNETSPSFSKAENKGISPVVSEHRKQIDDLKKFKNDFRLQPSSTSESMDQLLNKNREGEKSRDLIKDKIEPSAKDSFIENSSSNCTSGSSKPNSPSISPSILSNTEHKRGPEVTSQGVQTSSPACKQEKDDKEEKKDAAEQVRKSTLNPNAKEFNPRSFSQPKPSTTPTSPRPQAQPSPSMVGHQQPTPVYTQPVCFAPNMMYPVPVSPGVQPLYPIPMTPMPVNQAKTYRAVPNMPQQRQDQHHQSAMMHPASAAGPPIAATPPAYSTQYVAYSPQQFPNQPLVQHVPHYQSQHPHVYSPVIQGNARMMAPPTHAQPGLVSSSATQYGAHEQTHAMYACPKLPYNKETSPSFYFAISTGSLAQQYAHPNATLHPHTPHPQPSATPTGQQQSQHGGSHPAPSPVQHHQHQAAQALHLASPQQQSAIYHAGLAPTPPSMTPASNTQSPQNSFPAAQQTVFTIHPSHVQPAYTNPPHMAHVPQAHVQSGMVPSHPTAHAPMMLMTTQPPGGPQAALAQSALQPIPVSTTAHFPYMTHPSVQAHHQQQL

One test addresses T1, FBXW8-HA (human) (UniProt Q8N3Y1).
T1 sequence: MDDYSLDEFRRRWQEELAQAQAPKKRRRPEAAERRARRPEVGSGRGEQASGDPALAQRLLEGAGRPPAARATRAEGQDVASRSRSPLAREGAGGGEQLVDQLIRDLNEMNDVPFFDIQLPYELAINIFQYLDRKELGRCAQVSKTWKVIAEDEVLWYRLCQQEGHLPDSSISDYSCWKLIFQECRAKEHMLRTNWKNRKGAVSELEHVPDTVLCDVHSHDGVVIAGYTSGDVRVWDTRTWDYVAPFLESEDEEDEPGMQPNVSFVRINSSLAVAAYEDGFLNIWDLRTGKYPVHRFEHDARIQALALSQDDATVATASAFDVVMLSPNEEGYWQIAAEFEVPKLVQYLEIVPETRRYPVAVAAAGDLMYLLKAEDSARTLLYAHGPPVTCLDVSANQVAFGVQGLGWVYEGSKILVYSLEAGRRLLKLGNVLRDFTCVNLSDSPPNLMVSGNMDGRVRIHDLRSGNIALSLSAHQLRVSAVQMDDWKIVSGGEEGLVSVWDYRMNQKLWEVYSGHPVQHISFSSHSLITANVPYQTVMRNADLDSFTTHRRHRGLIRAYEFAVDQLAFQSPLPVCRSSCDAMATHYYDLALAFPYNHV
Briefly: co-IP; lysate of transfected HeLa cells (120 mM NaCl, 0.1% Triton X 100, 50 mM Tris-HCl pH 7.5); pulled with anti-FBXW8 antibody on Protein A-agarose, overnight at 4°C; immunoblot. (In general: Immunoblotting shows a protein as a band on a membrane.)

The target of test [1] is T2, endogenous FBXW8 of mouse cerebellum (mouse (endogenous in cerebellum)) (UniProt Q8BIA4).
T2 sequence: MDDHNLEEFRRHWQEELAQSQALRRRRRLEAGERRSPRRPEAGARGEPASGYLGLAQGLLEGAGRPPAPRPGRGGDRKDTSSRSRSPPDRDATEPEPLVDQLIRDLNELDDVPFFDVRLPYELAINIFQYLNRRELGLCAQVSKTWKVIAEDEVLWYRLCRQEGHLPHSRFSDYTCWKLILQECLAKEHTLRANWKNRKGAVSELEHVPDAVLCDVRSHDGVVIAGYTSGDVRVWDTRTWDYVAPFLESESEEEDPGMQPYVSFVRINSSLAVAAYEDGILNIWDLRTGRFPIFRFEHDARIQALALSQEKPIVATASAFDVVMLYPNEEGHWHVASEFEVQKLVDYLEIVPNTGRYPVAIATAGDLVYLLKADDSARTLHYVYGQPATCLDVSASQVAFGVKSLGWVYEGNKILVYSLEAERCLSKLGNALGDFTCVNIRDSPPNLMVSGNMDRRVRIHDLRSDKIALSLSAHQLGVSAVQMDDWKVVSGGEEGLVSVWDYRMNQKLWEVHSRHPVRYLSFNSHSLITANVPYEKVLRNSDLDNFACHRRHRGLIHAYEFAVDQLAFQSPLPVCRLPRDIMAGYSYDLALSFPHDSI
The experiment in a line: co-IP; cerebellar lysate of WT and Atxn2-CAG42-KIN mice (NP40 buffer: 20 mM Tris-HCl pH 8.0, 137 mM NaCl, 0.1% Igepal CA-630, 2 mM EDTA); endogenous proteins; pulled with anti-FBXW8 antibody on Protein A-agarose, overnight at 4°C; immunoblot.

In test [2] the target is T3, endogenous ATXN2 of WT mouse cerebellum (mouse (endogenous in cerebellum)) (UniProt O70305).
T3 sequence: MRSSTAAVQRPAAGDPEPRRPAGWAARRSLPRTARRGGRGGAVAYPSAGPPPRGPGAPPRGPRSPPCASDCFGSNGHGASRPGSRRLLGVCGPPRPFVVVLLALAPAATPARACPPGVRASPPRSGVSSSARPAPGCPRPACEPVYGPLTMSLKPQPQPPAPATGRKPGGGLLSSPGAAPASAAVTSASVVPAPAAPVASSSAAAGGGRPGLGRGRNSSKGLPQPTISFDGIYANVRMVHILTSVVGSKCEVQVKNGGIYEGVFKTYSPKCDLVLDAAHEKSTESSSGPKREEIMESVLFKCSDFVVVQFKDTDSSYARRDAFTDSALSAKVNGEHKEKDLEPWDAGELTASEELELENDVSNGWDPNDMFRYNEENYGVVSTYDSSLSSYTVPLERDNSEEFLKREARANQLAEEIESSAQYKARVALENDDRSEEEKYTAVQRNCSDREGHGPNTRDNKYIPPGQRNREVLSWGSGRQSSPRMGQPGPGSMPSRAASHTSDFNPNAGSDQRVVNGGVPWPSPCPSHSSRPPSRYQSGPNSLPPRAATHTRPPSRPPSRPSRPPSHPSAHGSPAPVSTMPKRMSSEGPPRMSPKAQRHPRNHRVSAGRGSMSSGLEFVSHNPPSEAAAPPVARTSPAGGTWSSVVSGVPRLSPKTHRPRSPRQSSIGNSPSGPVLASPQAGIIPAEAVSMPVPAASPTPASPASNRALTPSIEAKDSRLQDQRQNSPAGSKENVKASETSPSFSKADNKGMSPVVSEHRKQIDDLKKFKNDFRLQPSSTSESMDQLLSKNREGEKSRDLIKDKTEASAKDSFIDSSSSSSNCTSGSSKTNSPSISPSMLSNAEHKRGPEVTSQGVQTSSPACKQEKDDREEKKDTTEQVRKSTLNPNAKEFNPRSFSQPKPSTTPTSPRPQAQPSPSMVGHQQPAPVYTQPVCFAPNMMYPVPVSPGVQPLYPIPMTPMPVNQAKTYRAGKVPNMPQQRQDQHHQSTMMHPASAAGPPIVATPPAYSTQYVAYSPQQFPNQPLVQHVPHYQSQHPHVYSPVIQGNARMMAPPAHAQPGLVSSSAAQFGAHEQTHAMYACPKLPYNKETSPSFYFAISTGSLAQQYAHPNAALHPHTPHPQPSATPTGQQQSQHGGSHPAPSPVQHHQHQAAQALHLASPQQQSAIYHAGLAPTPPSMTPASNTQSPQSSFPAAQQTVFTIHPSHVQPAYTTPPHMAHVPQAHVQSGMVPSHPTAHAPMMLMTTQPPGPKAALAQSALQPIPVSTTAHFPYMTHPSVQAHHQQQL
Briefly: co-IP; cerebellar lysate of WT and Atxn2-CAG42-KIN mice (NP40 buffer: 20 mM Tris-HCl pH 8.0, 137 mM NaCl, 0.1% Igepal CA-630, 2 mM EDTA); endogenous proteins; pulled with anti-ATXN2 antibody on Protein A-agarose, overnight at 4°C; immunoblot.

These are yes or no findings as the source states them, for the method shown. In cells and extracts the contact can be indirect. Some results given as binding are weak or reduced against the parent protein; the word gives no strength. For some of these results: Where a sequence is shown, tags or fusion partners need not be part of it.

Regarding “GFP-Cherry-PARK2 (from UniProt O60260 1-465)”, the binding result with FBXW8-HA (human) is on record as “binds”. Regarding “endogenous wild-type ATXN2 of HeLa cells (from UniProt Q99700 1-1313)”, the binding result in the test with FBXW8-HA (human) is listed as “binds”.

B1: endogenous ATXN2 of WT mouse cerebellum (protein, UniProt O70305 1-1285)
chain: T3 sequence
Regarding B1, the binding entry in test [1] is listed as “binds”.

B2: endogenous FBXW8 of mouse cerebellum (protein, UniProt Q8BIA4 1-598)
chain: T2 sequence
For B2, the binding entry in test [2] is recorded as “binds”.
